# Article PMC11178546
# Protein sequences, listed by entry. Tags and fused reporters are not part of them. Residues count along the entry.
# UniProt P98194: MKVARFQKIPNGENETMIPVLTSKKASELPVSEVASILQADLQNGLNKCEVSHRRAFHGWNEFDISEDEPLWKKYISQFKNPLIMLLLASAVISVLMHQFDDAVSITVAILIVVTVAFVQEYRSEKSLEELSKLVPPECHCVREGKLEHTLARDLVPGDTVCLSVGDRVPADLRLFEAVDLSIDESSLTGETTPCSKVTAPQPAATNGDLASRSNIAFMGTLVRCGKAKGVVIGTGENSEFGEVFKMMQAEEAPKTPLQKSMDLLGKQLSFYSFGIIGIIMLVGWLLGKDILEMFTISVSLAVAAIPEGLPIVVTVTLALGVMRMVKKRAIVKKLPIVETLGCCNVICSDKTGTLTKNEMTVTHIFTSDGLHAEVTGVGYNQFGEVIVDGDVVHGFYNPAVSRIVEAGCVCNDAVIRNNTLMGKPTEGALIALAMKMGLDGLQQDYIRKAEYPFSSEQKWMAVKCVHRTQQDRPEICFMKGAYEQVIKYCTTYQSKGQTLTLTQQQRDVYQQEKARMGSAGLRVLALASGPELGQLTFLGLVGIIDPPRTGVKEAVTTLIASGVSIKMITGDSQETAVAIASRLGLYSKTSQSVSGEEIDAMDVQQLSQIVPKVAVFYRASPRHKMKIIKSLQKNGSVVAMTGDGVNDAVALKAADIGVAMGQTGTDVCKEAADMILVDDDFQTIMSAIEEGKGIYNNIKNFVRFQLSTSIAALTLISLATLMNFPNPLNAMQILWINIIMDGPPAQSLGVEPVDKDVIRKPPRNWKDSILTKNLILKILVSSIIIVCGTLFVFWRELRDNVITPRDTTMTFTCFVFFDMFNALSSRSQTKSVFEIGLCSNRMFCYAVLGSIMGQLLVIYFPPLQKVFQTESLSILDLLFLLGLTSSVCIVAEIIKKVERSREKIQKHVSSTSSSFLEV
# UniProt Q9H4A6: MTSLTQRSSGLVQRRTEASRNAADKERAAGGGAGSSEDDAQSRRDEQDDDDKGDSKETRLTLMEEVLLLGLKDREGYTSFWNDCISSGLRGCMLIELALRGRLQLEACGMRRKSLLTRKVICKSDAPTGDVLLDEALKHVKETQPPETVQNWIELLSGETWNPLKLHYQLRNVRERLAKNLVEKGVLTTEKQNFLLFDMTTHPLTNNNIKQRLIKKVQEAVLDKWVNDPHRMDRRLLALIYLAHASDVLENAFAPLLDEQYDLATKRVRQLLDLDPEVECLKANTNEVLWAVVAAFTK
# UniProt P05067, residues 18-770: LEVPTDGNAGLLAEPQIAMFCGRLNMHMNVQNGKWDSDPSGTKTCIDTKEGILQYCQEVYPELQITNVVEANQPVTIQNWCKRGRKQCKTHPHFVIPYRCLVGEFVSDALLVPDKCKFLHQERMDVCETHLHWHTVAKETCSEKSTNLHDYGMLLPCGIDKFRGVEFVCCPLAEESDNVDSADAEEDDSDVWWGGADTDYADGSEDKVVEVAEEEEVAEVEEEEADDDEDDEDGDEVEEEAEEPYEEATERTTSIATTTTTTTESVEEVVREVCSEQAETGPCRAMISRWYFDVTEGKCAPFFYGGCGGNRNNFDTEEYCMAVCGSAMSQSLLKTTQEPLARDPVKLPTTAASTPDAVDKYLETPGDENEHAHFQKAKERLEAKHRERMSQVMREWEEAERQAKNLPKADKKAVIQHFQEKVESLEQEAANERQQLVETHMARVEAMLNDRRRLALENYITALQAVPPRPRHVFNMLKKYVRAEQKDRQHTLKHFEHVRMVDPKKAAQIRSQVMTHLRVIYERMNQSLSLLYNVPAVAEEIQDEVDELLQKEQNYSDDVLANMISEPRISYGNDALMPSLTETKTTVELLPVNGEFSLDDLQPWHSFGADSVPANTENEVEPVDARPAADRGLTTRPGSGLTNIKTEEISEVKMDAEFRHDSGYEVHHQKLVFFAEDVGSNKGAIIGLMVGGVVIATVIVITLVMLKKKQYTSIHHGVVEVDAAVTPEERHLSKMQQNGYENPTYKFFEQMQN
# Like-named read-outs stand apart in the source and are kept apart here. These are yes or no findings as the source states them, for the method shown. Binding seen in cells or lysates may run through a third protein. Some results given as binding are weak or reduced against the parent protein; the word gives no strength.
# T1: full-length GOLIM4 (reconstituted in GOLIM4-KO H1299 cells) (human) (UniProt O00461)
# T1 sequence: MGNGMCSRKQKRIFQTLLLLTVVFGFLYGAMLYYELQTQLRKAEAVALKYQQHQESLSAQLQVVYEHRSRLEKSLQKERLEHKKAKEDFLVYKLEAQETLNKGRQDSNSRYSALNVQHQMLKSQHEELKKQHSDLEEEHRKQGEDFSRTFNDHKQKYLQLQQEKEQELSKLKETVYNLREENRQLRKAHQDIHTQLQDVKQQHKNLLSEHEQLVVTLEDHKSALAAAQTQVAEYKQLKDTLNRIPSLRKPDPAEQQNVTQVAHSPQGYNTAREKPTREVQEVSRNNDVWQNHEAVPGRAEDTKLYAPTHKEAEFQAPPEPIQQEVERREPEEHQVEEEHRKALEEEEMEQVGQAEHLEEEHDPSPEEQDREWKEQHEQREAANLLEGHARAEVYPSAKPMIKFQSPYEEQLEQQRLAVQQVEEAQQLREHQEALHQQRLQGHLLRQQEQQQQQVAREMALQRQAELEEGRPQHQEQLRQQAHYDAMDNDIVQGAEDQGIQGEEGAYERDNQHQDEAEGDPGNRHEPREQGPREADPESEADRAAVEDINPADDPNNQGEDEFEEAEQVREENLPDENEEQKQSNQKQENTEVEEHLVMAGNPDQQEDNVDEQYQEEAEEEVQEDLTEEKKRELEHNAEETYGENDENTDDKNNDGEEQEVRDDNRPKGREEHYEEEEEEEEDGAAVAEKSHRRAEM
# T2: Golgi integral membrane protein 4 (GOLIM4) in H1299 cells (human) (UniProt O00461)
# T2 sequence: T1 sequence
# T3: Ca2+-binding protein 45 kDa (CAB45) (human) (UniProt Q9BRK5)
# T3 sequence: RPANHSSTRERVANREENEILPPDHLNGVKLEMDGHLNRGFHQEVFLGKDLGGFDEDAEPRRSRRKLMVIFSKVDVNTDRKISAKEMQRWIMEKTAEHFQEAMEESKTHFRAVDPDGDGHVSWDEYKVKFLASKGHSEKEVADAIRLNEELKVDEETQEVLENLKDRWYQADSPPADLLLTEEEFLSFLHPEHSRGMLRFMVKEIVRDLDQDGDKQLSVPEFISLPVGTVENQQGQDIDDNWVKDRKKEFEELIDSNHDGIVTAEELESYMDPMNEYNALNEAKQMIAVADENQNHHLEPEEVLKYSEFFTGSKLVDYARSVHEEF
# B1: GGA1 (protein, UniProt Q9UJY5 1-639)
# chain: MEPAMEPETLEARINRATNPLNKELDWASINGFCEQLNEDFEGPPLATRLLAHKIQSPQEWEAIQALTVLETCMKSCGKRFHDEVGKFRFLNELIKVVSPKYLGSRTSEKVKNKILELLYSWTVGLPEEVKIAEAYQMLKKQGIVKSDPKLPDDTTFPLPPPRPKNVIFEDEEKSKMLARLLKSSHPEDLRAANKLIKEMVQEDQKRMEKISKRVNAIEEVNNNVKLLTEMVMSHSQGGAAAGSSEDLMKELYQRCERMRPTLFRLASDTEDNDEALAEILQANDNLTQVINLYKQLVRGEEVNGDATAGSIPGSTSALLDLSGLDLPPAGTTYPAMPTRPGEQASPEQPSASVSLLDDELMSLGLSDPTPPSGPSLDGTGWNSFQSSDATEPPAPALAQAPSMESRPPAQTSLPASSGLDDLDLLGKTLLQQSLPPESQQVRWEKQQPTPRLTLRDLQNKSSSCSSPSSSATSLLHTVSPEPPRPPQQPVPTELSLASITVPLESIKPSNILPVTVYDQHGFRILFHFARDPLPGRSDVLVVVVSMLSTAPQPIRNIVFQSAVPKVMKVKLQPPSGTELPAFNPIVHPSAITQVLLLANPQKEKVRLRYKLTFTMGDQTYNEMGDVDQFPPPETWGSL
# B2: γ glutamyl hydrolase (GGH) (protein, UniProt Q92820 25-318)
# chain: RPHGDTAKKPIIGILMQKCRNKVMKNYGRYYIAASYVKYLESAGARVVPVRLDLTEKDYEILFKSINGILFPGGSVDLRRSDYAKVAKIFYNLSIQSFDDGDYFPVWGTCLGFEELSLLISGECLLTATDTVDVAMPLNFTGGQLHSRMFQNFPTELLLSLAVEPLTANFHKWSLSVKNFTMNEKLKKFFNVLTTNTDGKIEFISTMEGYKYPVYGVQWHPEKAPYEWKNLDGISHAPNAVKTAFYLAEFFVNEARKNNHHFKSESEEEKALIYQFSPIYTGNISSFQQCYIFD
# Assays:
# [1] = molecular target: T1, full-length GOLIM4 (reconstituted in GOLIM4-KO H1299 cells) (human); assay: co-IP; IP/WB; H1299 cells (parental or GOLIM4-KO reconstituted) transfected with the indicated expression vectors, lysed after 48 hours in 1x RIPA buffer, antibodies at 4°C overnight, protein G agarose beads; RBFOX2 siRNA attenuated the GOLIM4-ATP2C1 interaction
# [2] = molecular target: T2, Golgi integral membrane protein 4 (GOLIM4) in H1299 cells (human); assay: as above
# [3] = molecular target: T3, Ca2+-binding protein 45 kDa (CAB45) (human); assay: as above
# [4] = molecular target: T2, Golgi integral membrane protein 4 (GOLIM4) in H1299 cells (human); assay: co-IP; co-IP from Mn-treated cells
# [5] = molecular target: T3, Ca2+-binding protein 45 kDa (CAB45) (human); assay: co-IP; IP/WB; H1299 cells (parental or GOLIM4-KO reconstituted) transfected with the indicated expression vectors, lysed after 48 hours in 1x RIPA buffer, antibodies at 4°C overnight, protein G agarose beads; RBFOX2 siRNA attenuated the GOLIM4-ATP2C1 interaction; remark: listed apart in the source
molecule,measurement,setting,value
ATPase secretory pathway Ca2+ transporting 1 (ATP2C1) (from UniProt P98194 1-919),binding,[1],binds
same,binding,[2],binds
HA-GOLPH3 (from UniProt Q9H4A6 1-298),binding,[2],binds
amyloid precursor protein (APP) (from UniProt P05067 18-770),binding,[3],binds
B1,binding,[4],binds
B2,binding,[5],binds
